# Data reported in the supplement of paper PMC5355238.
# Counter-ions that a name gives are not always drawn. This is one part of the list. Repeats are few or missing, and single values can be far off.
# System: Reh
# Assay: S-phase gammaH2AX median, Z-score vs plate median (drug alone); higher = more S-phase DNA damage
# Conditions: MK1775 concentration 0 nM; 10 µM; 4 h
row,Structure (SMILES),S-phase gammaH2AX median (Z-score)
1,CC(C)NC[C@H](O)COc1cccc2ccccc12 [(S)-Propranolol hydrochloride],0.367
2,Clc1ccc(C(c2ccc(Cl)cc2)[n+]2ccn(CC(OCc3ccc(Cl)cc3Cl)c3ccc(Cl)cc3Cl)c2)cc1 (configuration not stated) [Calmidazolium chloride],-0.115
3,C[C@H]1O[C@@H](n2cc(F)c(=O)[nH]c2=O)[C@H](O)[C@@H]1O [5-fluoro-5'-deoxyuridine],-0.126
4,O=C(O)C=C1CCCc2ccccc2C1O (configuration not stated),0.0875
5,CC(=O)CCCCn1c(=O)c2c(ncn2C)n(C)c1=O [Pentoxifylline],0.0639
6,CN(C)CCOc1ccc(-c2nc(-c3ccncc3)c(-c3ccc4c(c3)CC/C4=N\O)[nH]2)cc1,0.248
7,Cc1ccnc(NS(=O)(=O)c2ccc(NC(=O)Nc3ccc(S(=O)(=O)Nc4nccc(C)n4)cc3)cc2)n1,0.00657
8,COc1c(C)c2c(c(O)c1C/C=C(\C)CCC(=O)O)C(=O)OC2 [Mycophenolic (Mycophenolate)],-0.0159
9,NC[C@@H](O)c1ccc(O)c(O)c1 [L(-)-Norepinephrine bitartrate],0.0214
10,Nc1nc(Cl)nc2c1ncn2[C@@H]1O[C@H](COP(=O)(O)OP(=O)(O)OP(=O)(O)O)[C@H](O)C1O (some centres not stated) [2-Chloroadenosine triphosphate tetrasodium],0.0233
11,Oc1cc2c(cc1O)CN(C(=S)NCCc1ccc(Cl)cc1)CCC2 [Capsazepine],-0.00971
12,COc1ccc(CCN2CCN(CCCc3ccccc3)CC2)cc1OC,0.115
13,O=C1Cc2c([nH]c3ccc(Br)cc23)-c2ccccc2N1 [Kenpaullone],-0.441
14,CNCCCC12CCC(c3ccccc31)c1ccccc12 [Maprotiline hydrochloride],-0.218
15,COc1ccc2c(c1)c(CC(=O)N1CCOCC1)c(C)n2C(=O)c1ccc(Cl)cc1 [Indomethacin morpholinylamide],0.0661
16,C[C@]12C=CC(=O)C=C1CC[C@H]1[C@@H]3C[C@@H](O)[C@](O)(C(=O)CO)[C@@]3(C)C[C@H](O)[C@@]12F [Triamcinolone],-0.0467
17,N#Cc1ccc(COC[C@H]2O[C@@H](n3c(NCc4ccc(Cl)c(Cl)c4)nc4c(N)ncnc43)[C@H](O)[C@@H]2O)cc1,-0.0321
18,CCCCCCCC/C=C\CCCCCCCC(=O)NCCO [N-Oleoylethanolamine],0.156
19,CNCC[C@@H](Oc1ccc(C(F)(F)F)cc1)c1ccccc1 [R-(-)-Fluoxetine hydrochloride],-0.148
20,Cn1ccnc1 [1-Methylimidazole],0.0591
21,CCN(CC)CCOC(=O)c1ccc(N)cc1 [Procaine hydrochloride],-0.0378
22,N#C/C(=C\c1ccc(O)c(O)c1)C(=O)NCCc1ccccc1 [Tyrphostin AG 698],-0.227
23,O=C(O)Cc1cccc(OCCCN(Cc2cccc(C(F)(F)F)c2Cl)CC(c2ccccc2)c2ccccc2)c1,0.0893
24,"O=c1cc(-c2ccccc2)[nH]c2nc(Cl)ccc12 [7-Chloro-4-hydroxy-2-phenyl-1,8-naphthyridine]",0.0641
25,O=c1[nH]c(=O)c2nc3ccccc3nc2[nH]1 [Alloxazine],-0.0641
26,CC(=O)O[C@H]1C[C@@]2(C)[C@@H](C[C@@H](O)[C@H]3[C@@]4(C)CC[C@@H](O)[C@@H](C)[C@@H]4CC[C@@]32C)/C1=C(\CCC=C(C)C)C(=O)O [Fusidic acid sodium],-0.0724

row,Structure (SMILES),S-phase gammaH2AX median (Z-score)
1,CC(=O)N[C@@H](CS)C(=O)O [N-Acetyl-L-Cysteine],0.0641
2,C[C@]1(c2nc3c(C(N)=O)cccc3[nH]2)CCCN1 [ABT-888 (Veliparib)],0.204
3,O=c1[nH]c2cc(C(F)(F)F)ccc2n1-c1cc(C(F)(F)F)ccc1O,0.222
4,N[C@@H](CCCC(=O)O)C(=O)O [L-2-aminoadipic acid],0.0214
5,CCCCCCCCCC[Si](C)(C)CCC(=O)NC(Cc1ccc(C)cc1)c1ccccc1 (configuration not stated) [Sandoz 58-035],-0.0233
6,COC(=O)Nc1ccc(-c2nc(N3CCOCC3)c3cnn(C4CCN(C(=O)OC)CC4)c3n2)cc1,-0.0808
7,NC(=O)OCC(COC(N)=O)c1ccccc1 [Felbamate],-0.0724
8,"CCCCS(=N)(=O)CCC(N)C(=O)O (racemic) [DL-Buthionine-[S,R]-sulfoximine]",-0.033
9,COc1ccccc1NC(=O)Nc1nc(-c2cccnc2)nc2ccccc12,0.133
10,COCc1nc2c([nH]1)c(=O)n(C)c(=O)n2CC(C)C [8-Methoxymethyl-3-isobutyl-1-methylxanthine],0.0639
11,CC(C)n1c(/C=C/C(O)CC(O)CC(=O)O)c(-c2ccc(F)cc2)c2ccccc21 (configuration not stated) [Fluvastatin sodium (Lescol)],0.153
12,CCCCNc1cc(C(=O)O)cc(S(N)(=O)=O)c1Oc1ccccc1 [Bumetanide],0.0874
13,NC(N)=NC(N)=Nc1ccccc1 [1-Phenylbiguanide],-0.0946
14,NCCc1ccc(O)c(O)c1 [Dopamine hydrochloride],-0.0157
15,O=C(/C=C/c1cccnc1)NCCCCC1CCN(C(=O)c2ccccc2)CC1,0.0251
16,C[C@H](Cc1ccc(O)c(O)c1)[C@@H](C)Cc1ccc(O)c(O)c1,-0.156
17,C[C@H](CS)C(=O)N1CCC[C@H]1C(=O)O [Captopril],-0.00971
18,Cn1cnc2c(F)c(Nc3ccc(Br)cc3Cl)c(C(=O)NOCCO)cc21 [AZD6244 (Selumetinib)],0.0932
19,NC(=O)c1ccccc1 [Benzamide],-0.0816
20,Nc1ncnc2c1ncn2C1CCCC1 [9-cyclopentyladenine],-0.068
21,O=C1NC(c2cccc([N+](=O)[O-])c2)=CCN1c1ccccc1O [Icilin],-0.11
22,CCCN(CC1CC1)c1nc(C)nc(Nc2c(Cl)cc(Cl)cc2Cl)c1Cl,0.0882
23,CCCCCC(O)CCCC(=O)O (configuration not stated) [5-hydroxydecanoic acid sodium],-0.00945
24,N#CC1(c2ccc(NC(=O)c3cccnc3NCc3ccncc3)cc2)CCCC1 [Apatinib (YN968D1)],-0.0607
25,Nc1nc(N)c2nc(-c3ccccc3)c(N)nc2n1 [Triamterene],0
26,Cc1ccc(C(=O)N(CCCN)[C@@H](c2oc3cc(Cl)ccc3c(=O)c2Cc2ccccc2)C(C)C)cc1,-0.101

# Shown with bars between the fields: entries from further up
row | Structure (SMILES) | S-phase gammaH2AX median (Z-score)
14 | NCCc1ccc(O)c(O)c1 [Dopamine hydrochloride] | -0.0157
15 | O=C(/C=C/c1cccnc1)NCCCCC1CCN(C(=O)c2ccccc2)CC1 | 0.0251
16 | C[C@H](Cc1ccc(O)c(O)c1)[C@@H](C)Cc1ccc(O)c(O)c1 | -0.156
